From article doi:10.1101/2022.04.06.487337 come the findings set out here.

Protein sequences, listed by entry. Tags and fused reporters are not part of them.
UniProt P36402: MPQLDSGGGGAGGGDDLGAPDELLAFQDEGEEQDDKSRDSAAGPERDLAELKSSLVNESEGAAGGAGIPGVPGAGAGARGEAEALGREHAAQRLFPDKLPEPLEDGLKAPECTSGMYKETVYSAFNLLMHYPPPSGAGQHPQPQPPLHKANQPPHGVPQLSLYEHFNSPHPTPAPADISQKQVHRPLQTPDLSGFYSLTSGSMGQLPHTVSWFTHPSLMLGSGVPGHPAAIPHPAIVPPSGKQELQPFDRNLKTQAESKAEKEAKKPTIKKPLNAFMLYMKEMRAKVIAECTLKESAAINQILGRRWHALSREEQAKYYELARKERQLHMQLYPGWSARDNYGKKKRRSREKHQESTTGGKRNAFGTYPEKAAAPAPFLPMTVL
UniProt Q9UJU2: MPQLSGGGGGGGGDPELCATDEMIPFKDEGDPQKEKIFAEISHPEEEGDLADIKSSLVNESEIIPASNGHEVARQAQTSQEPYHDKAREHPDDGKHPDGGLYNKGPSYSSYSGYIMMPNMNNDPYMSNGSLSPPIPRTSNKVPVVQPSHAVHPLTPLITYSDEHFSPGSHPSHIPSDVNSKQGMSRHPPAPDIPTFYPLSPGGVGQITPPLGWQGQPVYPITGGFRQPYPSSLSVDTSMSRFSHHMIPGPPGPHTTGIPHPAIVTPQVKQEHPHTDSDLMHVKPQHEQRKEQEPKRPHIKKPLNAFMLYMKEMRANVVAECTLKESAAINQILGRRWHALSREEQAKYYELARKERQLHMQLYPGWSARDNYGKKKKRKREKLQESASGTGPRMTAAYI
UniProt P48436: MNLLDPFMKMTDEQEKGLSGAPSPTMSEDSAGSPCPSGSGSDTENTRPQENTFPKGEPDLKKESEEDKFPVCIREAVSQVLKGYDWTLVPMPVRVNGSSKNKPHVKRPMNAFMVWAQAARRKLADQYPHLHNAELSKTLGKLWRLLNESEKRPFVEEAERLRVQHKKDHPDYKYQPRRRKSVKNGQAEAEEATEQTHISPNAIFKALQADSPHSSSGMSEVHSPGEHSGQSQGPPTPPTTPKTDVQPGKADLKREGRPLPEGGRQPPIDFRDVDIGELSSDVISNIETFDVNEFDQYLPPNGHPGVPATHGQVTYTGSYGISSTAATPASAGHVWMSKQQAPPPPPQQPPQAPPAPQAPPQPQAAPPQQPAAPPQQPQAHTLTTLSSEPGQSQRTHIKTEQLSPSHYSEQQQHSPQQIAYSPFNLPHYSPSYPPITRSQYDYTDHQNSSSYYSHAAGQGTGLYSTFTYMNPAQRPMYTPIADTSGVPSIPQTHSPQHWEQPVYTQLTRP

The target in one experiment is GST-tagged TCF7 (UniProt P36402). Description: pull-down.
Experiment [1] concerns the target GST-tagged LEF1 (full-length) (UniProt Q9UJU2). The experiment in a line: pull-down.

Results are given in words; binding and its absence hold for the method and conditions named. Some entries that bind do so weakly or less than the wild type.

As for “His-tagged SOX9 (full-length) (from UniProt P48436 1-509)”, the binding entry (with GST-tagged TCF7; in experiment [1]) was “binds” throughout.
